Data from PubChem BioAssay AID488840 (Broad Institute, 2010).
Hit rate of the full screen: of about 1,400 compounds, about 45 (3%) were called active.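 How the source made its calls: active means half-maximal dose of signal decrease from fit no higher than ten times the top valid tested dose; inconclusive means fit invalid, or curve flat with 30 to 70% inhibition; inactive means the rest.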 The list shows a part of the results. Measured potencies and affinities stand elsewhere.

Chains of the proteins cited; added tags and fusions are not shown. Lines headed by an entry give the natural chain unless they say otherwise; changes in a name come on top.
UniProt O75164: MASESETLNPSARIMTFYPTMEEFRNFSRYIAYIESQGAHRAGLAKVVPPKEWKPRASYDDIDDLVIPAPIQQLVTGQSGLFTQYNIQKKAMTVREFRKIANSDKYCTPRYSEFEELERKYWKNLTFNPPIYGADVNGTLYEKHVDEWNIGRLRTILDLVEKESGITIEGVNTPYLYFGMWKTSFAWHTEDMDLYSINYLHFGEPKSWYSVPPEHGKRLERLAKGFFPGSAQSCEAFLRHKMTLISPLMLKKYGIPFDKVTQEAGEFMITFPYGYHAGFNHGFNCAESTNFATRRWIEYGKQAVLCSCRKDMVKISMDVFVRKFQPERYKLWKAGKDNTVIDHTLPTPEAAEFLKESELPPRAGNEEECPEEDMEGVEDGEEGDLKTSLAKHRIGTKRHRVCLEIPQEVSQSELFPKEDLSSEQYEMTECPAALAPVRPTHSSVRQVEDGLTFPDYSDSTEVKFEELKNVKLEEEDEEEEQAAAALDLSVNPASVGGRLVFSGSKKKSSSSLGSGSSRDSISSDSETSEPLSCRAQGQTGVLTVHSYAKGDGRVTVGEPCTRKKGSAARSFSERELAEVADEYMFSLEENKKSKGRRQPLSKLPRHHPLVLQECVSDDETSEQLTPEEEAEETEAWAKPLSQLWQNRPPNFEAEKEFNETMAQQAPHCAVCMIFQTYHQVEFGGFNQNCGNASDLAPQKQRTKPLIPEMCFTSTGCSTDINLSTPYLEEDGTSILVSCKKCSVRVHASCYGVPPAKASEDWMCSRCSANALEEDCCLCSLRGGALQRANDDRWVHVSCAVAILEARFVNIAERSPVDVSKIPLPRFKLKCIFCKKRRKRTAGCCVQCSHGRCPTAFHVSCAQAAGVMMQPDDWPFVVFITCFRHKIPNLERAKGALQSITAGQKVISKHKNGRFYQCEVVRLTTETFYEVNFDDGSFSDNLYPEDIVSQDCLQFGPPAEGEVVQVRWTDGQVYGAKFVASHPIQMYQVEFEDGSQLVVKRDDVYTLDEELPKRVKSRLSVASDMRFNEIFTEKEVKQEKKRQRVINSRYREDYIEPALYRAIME

target: Lysine-specific demethylase 4A (Homo sapiens) (UniProt O75164); test: inhibition of JMJD2A H3K9me3 demethylation – biochemical, DELFIA europium, cherry-picked samples, selectivity assay for GASC-1 inhibitor project, dose response (AID 488840); conditions: GST-JMJD2A(1-420) H3K9me3 demethylation; at 6 µM (top of the series) unless noted;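 further: europium signal reports the dimethyl H3K9 product detected by antibody so inhibitors lower it; 0% = median of neutral control wells and -100% = median of positive control wells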

Activity change, negative = inhibition, inactive:
COc1cccc(/C=N/Nc2nc3ccccc3[nH]2)c1O -1.33%
Cc1cc(C)c(NC(=O)CS(=O)CC(=O)Nc2ccc(F)cc2F)c(C)c1 (centres undefined) 0.628%
Cc1noc(C)c1NC(=O)N(C)C[C@H]1Oc2ccc(NC(=O)Cn3cnnn3)cc2C(=O)N([C@H](C)CO)C[C@@H]1C -8.39%
O=C(NCc1ccccc1)c1ccc2c(c1)OCCO2 3.98%
COc1cc(-c2nc(-c3cccc(C)c3)no2)cc(OC)c1OC 1.42%
O=C(CSc1nc(-c2ccco2)cc(C(F)(F)F)n1)Nc1ccc(C(=O)N2CCCCC2)cc1 0.711%
CCOC(=O)C1CCN(S(=O)(=O)c2cc3c4c(c2)C(C)C(=O)N4CCC3)CC1 (centres undefined) -4.56%
Cc1sc2nc(CN3CCOCC3)nc(NS(=O)(=O)c3cc(Cl)ccc3Cl)c2c1C -1.37%
COc1cc2[nH]c(=O)n(CCCCCC(=O)NCCCN3CCCC3=O)c(=O)c2cc1OC 1.66%
CCCn1c(SCC(=O)NNC(=O)c2ccc(C)cc2)nnc1C(C)C -1.18%
CCOc1ccc(NCc2nnc(SCC(=O)Nc3cc(C)on3)n2-c2ccccc2OC)cc1 -1.16%
Cc1ccc(S(=O)(=O)Nc2ccc3c(c2)C(=O)N([C@H](C)CO)C[C@H](C)[C@@H](CN(C)Cc2ccc(-c4ccccc4)cc2)O3)cc1 20.7%
Cc1cccc(C)c1NS(=O)(=O)c1cc2c3c(c1)CC(=O)N3CCC2 0.393%
CCn1cnc2sc(C(=O)Nc3ccc4c(c3)OCO4)c(C)c2c1=O 3.95%
Cc1sc2ncnc(NCCCO)c2c1C -0.658%
CC(C)(C)NC(=O)CSc1nc2cccnc2n1C1CCCCC1 0.463%
O=C(Nc1cccnc1)c1ccccc1Oc1ccccc1 -1.69%
CSC1=NCCN1C(=O)c1cccc(C(F)(F)F)c1 3.3%
CCOC(=O)CSc1nc2sc(C)c(C)c2c(=O)[nH]1 -5.03%
CC1=NN(c2nc(-c3ccc(C#N)cc3)cs2)C(=O)C1 4.66%
Cc1cccc(N2CC(C(=O)Nc3nnc(SCC(=O)Nc4nccs4)s3)CC2=O)c1 (centres undefined) 3.7%
CCOC(=O)c1oc2ccccc2c1COC(=O)C(C)NC(=O)c1ccco1 (centres undefined) 0.994%
CCn1c(SCC(=O)N2CCc3ccccc32)nnc1-c1ccco1 4.26%
COc1ccc(NC(=O)Nc2cccc3c2O[C@H](CN(C)C(=O)NC(C)C)[C@@H](C)CN([C@H](C)CO)C3=O)cc1 1.26%

An excerpt from the list above:
Activity change, negative = inhibition, inactive:
Cc1noc(C)c1NC(=O)N(C)C[C@H]1Oc2ccc(NC(=O)Cn3cnnn3)cc2C(=O)N([C@H](C)CO)C[C@@H]1C -8.39%
O=C(NCc1ccccc1)c1ccc2c(c1)OCCO2 3.98%
